# Laboratory results as given in paper PMC12823420.
# No constants are given. Whether binding was seen depends on the method and setting. In cells and extracts the contact can be indirect. A yes stands for co-enrichment or nearness to the bait. Other partners may have been found.
# B1: endogenous SARNP (K562) (protein, UniProt P82979 1-210)
# chain: MATETVELHKLKLAELKQECLARGLETKGIKQDLIHRLQAYLEEHAEEEANEEDVLGDETEEEETKPIELPVKEEEPPEKTVDVAAEKKVVKITSEIPQTERMQKRAERFNVPVSLESKKAARAARFGISSVPTKGLSSDNKPMVNLDKLKERAQRFGLNVSSISRKSEDDEKLKKRKERFGIVTSSAGTGTTEDTEAKKRKRAERFGIA
# B2: endogenous UIF (K562) (protein, UniProt Q96QD9 1-318)
# chain: MNRFGTRLVGATATSSPPPKARSNENLDKIDMSLDDIIKLNRKEGKKQNFPRLNRRLLQQSGAQQFRMRVRWGIQQNSGFGKTSLNRRGRVMPGKRRPNGVITGLAARKTTGIRKGISPMNRPPLSDKNIEQYFPVLKRKANLLRQNEGQRKPVAVLKRPSQLSRKNNIPANFTRSGNKLNHQKDTRQATFLFRRGLKVQAQLNTEQLLDDVVAKRTRQWRTSTTNGGILTVSIDNPGAVQCPVTQKPRLTRTAVPSFLTKREQSDVKKVPKGVPLQFDINSVGKQTGMTLNERFGILKEQRATLTYNKGGSRFVTVG
# B3: endogenous RBM27 (K562) (protein, UniProt Q9P2N5 1-1060)
# chain: MLIEDVDALKSWLAKLLEPICDADPSALANYVVALVKKDKPEKELKAFCADQLDVFLQKETSGFVDKLFESLYTKNYLPLLEPVKPEPKPLVQEKEEIKEEVFQEPAEEERDGRKKKYPSPQKTRSESSERRTREKKREDGKWRDYDRYYERNELYREKYDWRRGRSKSRSKSRGLSRSRSRSRGRSKDRDPNRNVEHRERSKFKSERNDLESSYVPVSAPPPNSSEQYSSGAQSIPSTVTVIAPAHHSENTTESWSNYYNNHSSSNSFGRNLPPKRRCRDYDERGFCVLGDLCQFDHGNDPLVVDEVALPSMIPFPPPPPGLPPPPPPGMLMPPMPGPGPGPGPGPGPGPGPGPGPGHSMRLPVPQGHGQPPPSVVLPIPRPPITQSSLINSRDQPGTSAVPNLASVGTRLPPPLPQNLLYTVSERQPMYSREHGAAASERLQLGTPPPLLAARLVPPRNLMGSSIGYHTSVSSPTPLVPDTYEPDGYNPEAPSITSSGRSQYRQFFSRTQTQRPNLIGLTSGDMDVNPRAANIVIQTEPPVPVSINSNITRVVLEPDSRKRAMSGLEGPLTKKPWLGKQGNNNQNKPGFLRKNQYTNTKLEVKKIPQELNNITKLNEHFSKFGTIVNIQVAFKGDPEAALIQYLTNEEARKAISSTEAVLNNRFIRVLWHRENNEQPTLQSSAQLLLQQQQTLSHLSQQHHHLPQHLHQQQVLVAQSAPSTVHGGIQKMMSKPQTSGAYVLNKVPVKHRLGHAGGNQSDASHLLNQSGGAGEDCQIFSTPGHPKMIYSSSNLKTPSKLCSGSKSHDVQEVLKKKQEAMKLQQDMRKKRQEVLEKQIECQKMLISKLEKNKNMKPEERANIMKTLKELGEKISQLKDELKTSSAVSTPSKVKTKTEAQKELLDTELDLHKRLSSGEDTTELRKKLSQLQVEAARLGILPVGRGKTMSSQGRGRGRGRGGRGRGSLNHMVVDHRPKALTVGGFIEEEKEDLLQHFSTANQGPKFKDRRLQISWHKPKVPSISTETEEEEVKEEETETSDLFLPDDDDEDEDEYESRSWRR
# B4: endogenous NCBP3 (K562) (protein, UniProt Q53F19 1-620)
# chain: MAAVRGLRVSVKAEAPAGPALGLPSPEAESGVDRGEPEPMEVEEGELEIVPVRRSLKELIPDTSRRYENKAGSFITGIDVTSKEAIEKKEQRAKRFHFRSEVNLAQRNVALDRDMMKKAIPKVRLETIYICGVDEMSTQDVFSYFKEYPPAHIEWLDDTSCNVVWLDEMTATRALINMSSLPAQDKIRSRDASEDKSAEKRKKDKQEDSSDDDEAEEGEVEDENSSDVELDTLSQVEEESLLRNDLRPANKLAKGNRLFMRFATKDDKKELGAARRSQYYMKYGNPNYGGMKGILSNSWKRRYHSRRIQRDVIKKRALIGDDVGLTSYKHRHSGLVNVPEEPIEEEEEEEEEEEEEEEEDQDMDADDRVVVEYHEELPALKQPRERSASRRSSASSSDSDEMDYDLELKMISTPSPKKSMKMTMYADEVESQLKNIRNSMRADSVSSSNIKNRIGNKLPPEKFADVRHLLDEKRQHSRPRPPVSSTKSDIRQRLGKRPHSPEKAFSSNPVVRREPSSDVHSRLGVPRQDSKGLYADTREKKSGNLWTRLGSAPKTKEKNTKKVDHRAPGAEEDDSELQRAWGALIKEKEQSRQKKSRLDNLPSLQIEVSRESSSGSEAES
# What was measured:
# [1] = biological target: GFP–UAP56 (endogenously tagged eGFP–3C–DDX39B) (human (endogenous in K562)) (UniProt Q13838); assay: affinity purification with mass spectrometry; GFP-Trap IP from benzonase-treated nuclear lysate of GFP–UAP56 K562 cells against WT K562; on-bead digest, MS
# [2] = biological target: V5-flag-TurboID-tagged UAP56 mutant M1 (D49R/L51D) (human) (UniProt Q13838); assay: affinity purification with mass spectrometry; anti-flag M2 IP of V5-flag-TurboID-UAP56 WT or mutants M1–M3 from K562 nuclei, quantitative MS against V5-flag-TurboID-eGFP-NLS or WT UAP56
Binder,binding [1],binding [2]
B1,binds,binds
B2,binds,–
B3,binds,–
B4,binds,–
